Laboratory results taken from patent US20210008104A1, “COMPOSITIONS AND METHODS FOR INHIBITING HIV-1 REVERSE TRANSCRIPTASE” (The United States of America, as represented by the …, priority 2017, published 2021).
At least one structure is not confirmed: it was looked up by name or label, or the drawing left a doubt.

What was measured:
human DNA polymerase β = human DNA polymerase β (Homo sapiens, UniProt P06746); assay: PNP-induced gap-filling reaction; format: biochemical; parameters: made in house; settings: low concentration of PNP (10 μM final)
[1] = target: HIV-1 Reverse Transcriptase (RT) (Human immunodeficiency virus type 1 group M subtype B, UniProt P04585); assay: DNA synthesis and reverse reaction by HIV-1 Reverse Transcriptase; format: biochemical

O=P(O)(O)NP(=O)(O)O [PNP, imidodiphosphate]
coupled gap-filling DNA synthesis after reverse reaction (human DNA polymerase β): resulted in gap-filling DNA synthesis | promotion of the reverse reaction [1]: strongly promote the reverse reaction
